The target of the assay is full-length HA-tag-free UGT2B7 C127/156/282A (UniProt P16662). The assay can be described thus: non-reducing, non-heated SDS-PAGE with western blot; cell lysates in RIPA buffer (50 μg) mixed with SDS sample buffer without 2-mercaptoethanol and without the heating step (90 °C, 3 min), 7.5% gel, room temperature, 70 to 150 min; western blot with anti-HA or anti-UGT2B7; SDS-stable oligomer bands, greatly decreased when the reducing agent is added. On the technique in general: A western blot detects proteins with antibodies after separation by electrophoresis.

Results are given in words; binding and its absence hold for the method and conditions named. Where a sequence is shown, tags or fusion partners need not be part of it.

B1: full-length HA-tag-free UGT2B7 C127/156/282A (enzyme, UniProt P16662 24-529)
chain: GKVLVWAAEYSHWMNIKTILDELIQRGHEVTVLASSASILFDPNNSSALKIEIYPTSLTKTELENFIMQQIKRWSDLPKDTFWLYFSQVQEIMSIFGDITRKFAKDVVSNKKFMKKVQESRFDVIFADAIFPASELLAELFNIPFVYSLSFSPGYTFEKHSGGFIFPPSYVPVVMSELTDQMTFMERVKNMIYVLYFDFWFEIFDMKKWDQFYSEVLGRPTTLSETMGKADVWLIRNSWNFQFPYPLLPNVDFVGGLHAKPAKPLPKEMEDFVQSSGENGVVVFSLGSMVSNMTEERANVIASALAQIPQKVLWRFDGNKPDTLGLNTRLYKWIPQNDLLGHPKTRAFITHGGANGIYEAIYHGIPMVGIPLFADQPDNIAHMKARGAAVRVDFNTMSSTDLLNALKRVINDPSYKENVMKLSRIQHDQPVKPLDRAVFWIEFVMRHKGAKHLRVAAHDLTWFQYHSLDVIGFLLVCVATVIFIVTKCCLFCFWKFARKAKKGKND
With B1, the binding entry is “no binding”.

For the origin of these results see publication PMC12390933.
